Out of some 53,000 sequences screened, about 3,700 (7%) were called active.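 Rule for the calls: active = gene knockdowns whose robust z-score for IL-1 alpha signal is at least 2 or at most -2, so actives lie on both sides; inactive = the rest.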 This is one part of the list.
assay: Components of the Cytosolic LPS Sensing Pathway: Gene Identification via Genome-wide siRNA Screen; settings: RAW264.7 macrophages, IL-1a HTRF, actives lie on both sides, screened at 100 nM (by protocol), cells primed 5 h with Pam3CSK4 first;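 note: robust z of the log signal after scaling to non-targeting control siRNA wells of the plate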
How it was run: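 Supernatant IL-1a by HTRF from RAW264.7 cells primed with Pam3CSK4 (5 hours) and transfected with LipidA (24 hour) after 48h siRNA knockdown at 100 nM; cell viability checked with CellTiter-Glo.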

z-score, inactive:
GGUACUUUACGAACAUCUGTT against Sall1 1.24, GCAUUAGCUUGUUAACAUUTT against Tmtc2 -1.09, GGUUUCAGGUUGAAGACCATT against Pold2 -1.1, CCCUAAGGAGUUUUGCGUUTT against Ikzf4 1.58, GGCUGUCAUCUACGUUCUUTT against Dhrs11 0.495, GGAGCAAGUGAUGAUGACCTT against Pkp1 -0.263, GGCGUAUGUUUGUUGGUUGTT against Sertad3 0.913, GGAUUCAGGCAGAAGAAAGTT against Cep57 0.454, GGUUCAGAACGGAAGUGGCTT against Tnfrsf18 -0.127, GGGCUAUCUAACAUUAACUTT against Eef1akmt2 -0.826, CGAAAGGAAACAGUCCAGATT against Yju2 -1.81, CCUGUGUUAGGAGUUAUUCTT against Bpnt2 1.56, GGUUUGAUGAGAAGAAACATT against Mmp3 -0.429, GCUUUAUGGAUCUACCAAATT against Fbxl3 1.81, GGUCUUUGAGGAAAGAGGUTT against Hemk1 -1.59, GGACGAUAAGCUCUCUCAGTT against Epb41l3 1.62, GGAAAAGAAAAGGGCGGGCTT against Tgfbr2 0.49, GGAAAAAUUGUGCUCAACUTT against Kmt5b -0.613, CCUGCCAAUUUGUUUUUUGTT against Ccser2 -0.54, GCCCAUAAUAAGGAUCCUATT against Tmem184c -0.27, GGAGAACAGUCUUGAGAAATT against Crisp3 -0.712, GGAGAAACAGUUGUCAACUTT against Rprd2 -0.595, GACAAGGCUUCAUAAAAAGTT against Qrich1 -0.312, GUUUCCGGUCAGAGUGUGATT against Stard10 1.64, GGCAAGUGGCUCUUUGGUGTT against Cysltr1 -0.994, CGAUUUCUGCUCCUCAUUUTT against 9130019O22Rik -1.5, GGUCAUGCAGGUUUUGAAUTT against Snd1 1.9, CCCAAAAGUUUUUACAGCUTT against Ttpa 0.0745, GCAGCUAAUACAAACCUUATT against Scaf8 0.189

— PubChem BioAssay AID1508600 (Functional Genomics Laboratory (NCATS/FGL), 2020)
